Record: PubChem BioAssay AID1259254 (NCATS, 2017)
The deposit covers about 59,000 reagents; this is a part drawn at random. About 1,550 of all reagents (2.6%) count as active. 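G2 share is only a proxy for re-replication; each gene was hit by three separate siRNAs, and active genes were retested.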 Reagents against one gene are numbered here. Not all columns of the deposit are shown. Not given: the amount of reagent.

- Purpose: 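Finding genes that stop cells copying their DNA twice in one cycle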 (primary screen)
- System: human HCT116 colorectal cancer cells
- Reagents: single siRNA against human genes
- Timing: 3 days
- Read-out: 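Nuclei stained with Hoechst and imaged; cell-cycle phase assigned by DNA content; G2 share scaled per plate, non-targeting siRNA 0%, GMNN siRNA 100%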
- Reading the numbers: G2 robust z-score: higher = more G2 cells, more excess DNA replication
- Hit rule: 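An siRNA counts as active if its G2 robust z-score lies at least 5 MADs above the screen median; here such calls match roughly 38% of GMNN control or more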

G2 robust z-score, by gene and reagent
PNLIPRP3 (pancreatic lipase related protein 3): #1 -1.02 inactive; #2 0.655 inactive; #3 0.158 inactive
ELOA2 (elongin A2): #1 0.596 inactive; #2 0.135 inactive; #3 5.33 active
DYNLRB1 (dynein light chain roadblock-type 1): #1 1.05 inactive; #2 0.768 inactive; #3 -0.541 inactive
USP13 (ubiquitin specific peptidase 13): #1 -0.145 inactive; #2 -1.27 inactive; #3 -0.88 inactive
SETD4 (SET domain containing 4): #1 -0.268 inactive; #2 -0.128 inactive; #3 -0.389 inactive
GPR155 (G protein-coupled receptor 155): #1 1.26 inactive; #2 -0.118 inactive; #3 -0.158 inactive
TSN (translin): #1 -0.699 inactive; #2 -0.97 inactive; #3 -0.217 inactive
CHD1L (chromodomain helicase DNA binding protein 1 like): #1 -0.721 inactive; #2 -0.572 inactive; #3 2.49 inactive
CHFR (checkpoint with forkhead and ring finger domains): #1 0.215 inactive; #2 0.199 inactive; #3 -0.741 inactive
MRAP2 (melanocortin 2 receptor accessory protein 2): #1 0.167 inactive; #2 -0.262 inactive; #3 1.71 inactive
AHCTF1 (AT-hook containing transcription factor 1): #1 0.253 inactive; #2 -0.35 inactive; #3 0.576 inactive
SPDYE14 (speedy/RINGO cell cycle regulator family member E14): #1 0.746 inactive; #2 0.677 inactive; #3 -0.252 inactive

Entries above marked active, once more:
G2 robust z-score, by gene and reagent
ELOA2 (elongin A2): #3 5.33 active

Continued:
G2 robust z-score, by gene and reagent
ECD (ecdysoneless cell cycle regulator): #1 4.38 inactive; #2 0.537 inactive; #3 1.3 inactive
HIF1AN (hypoxia inducible factor 1 subunit alpha inhibitor): #1 0.193 inactive; #2 0.00737 inactive; #3 1.16 inactive
RNF40 (ring finger protein 40): #1 0.674 inactive; #2 -0.115 inactive; #3 0.0654 inactive
LY75 (lymphocyte antigen 75): #1 -0.661 inactive; #2 -0.832 inactive; #3 1.65 inactive
MRAP (melanocortin 2 receptor accessory protein): #1 1.51 inactive; #2 0.0377 inactive; #3 -0.35 inactive
SURF4 (surfeit 4): #1 2.43 inactive; #2 -0.00421 inactive; #3 0.201 inactive
ZBTB41 (zinc finger and BTB domain containing 41): #1 -0.296 inactive; #2 1.21 inactive; #3 0.422 inactive
DLG3 (discs large MAGUK scaffold protein 3): #1 2.94 inactive; #2 -0.649 inactive; #3 -0.915 inactive
RIMS4 (regulating synaptic membrane exocytosis 4): #1 -0.0967 inactive; #2 -0.522 inactive; #3 -0.906 inactive
TMCC3 (transmembrane and coiled-coil domain family 3): #1 -0.808 inactive; #2 2.41 inactive; #3 0.257 inactive
PLOD3 (procollagen-lysine,2-oxoglutarate 5-dioxygenase 3): #1 3.71 inactive; #2 3.08 inactive; #3 3.14 inactive
